Measurements from the supplement of paper PMC4604168 (melanoma cell lines).
The list shows a part of the results. Repeats are few or missing, and single values can be far off.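 Cells were imaged in 1,536-well plates, and nuclei stained with an antibody against cleaved PARP were counted against all DNA-stained nuclei to give the apoptosis fraction. Screening doses were chosen to leave most cells alive, and resting and induced cleaved-PARP levels differ strongly between cell lines.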

What was measured:
Test in all cases: cleaved PARP positive nuclei fraction relative to DMSO control; melanoma cells; higher = more apoptosis
Details in all cases: library dose: low library concentration; 72 h
501Mel = system: 501Mel
A101D = system: A101D
A2058 = system: A2058
A375 = system: A375
C32 = system: C32
CBRC008 = system: CBRC008 (line from a melanoma biopsy)
CBRC013 = system: CBRC013 (line from a melanoma biopsy)
CBRC014 = system: CBRC014 (line from a melanoma biopsy)
CBRC016 = system: CBRC016 (line from a melanoma biopsy)
CBRC017 = system: CBRC017 (line from a melanoma biopsy)
COLO792 = system: COLO792
COLO800 = system: COLO800
COLO829 = system: COLO829
G361 = system: G361
IPC-298 = system: IPC-298
IST-MEL1 = system: IST-MEL1
LB2518-MEL = system: LB2518-MEL
LOXIMVI = system: LOXIMVI
MEL-HO = system: MEL-HO
CBRC034 = system: CBRC034 (line from a melanoma biopsy)

SMILES	cleaved PARP positive nuclei fraction (501Mel) [%]	cleaved PARP positive nuclei fraction (A101D) [%]	cleaved PARP positive nuclei fraction (A2058) [%]	cleaved PARP positive nuclei fraction (A375) [%]	cleaved PARP positive nuclei fraction (C32) [%]	cleaved PARP positive nuclei fraction (CBRC008) [%]	cleaved PARP positive nuclei fraction (CBRC013) [%]	cleaved PARP positive nuclei fraction (CBRC014) [%]	cleaved PARP positive nuclei fraction (CBRC016) [%]	cleaved PARP positive nuclei fraction (CBRC017) [%]	cleaved PARP positive nuclei fraction (COLO792) [%]	cleaved PARP positive nuclei fraction (COLO800) [%]	cleaved PARP positive nuclei fraction (COLO829) [%]	cleaved PARP positive nuclei fraction (G361) [%]	cleaved PARP positive nuclei fraction (IPC-298) [%]	cleaved PARP positive nuclei fraction (IST-MEL1) [%]	cleaved PARP positive nuclei fraction (LB2518-MEL) [%]	cleaved PARP positive nuclei fraction (LOXIMVI) [%]	cleaved PARP positive nuclei fraction (MEL-HO) [%]	cleaved PARP positive nuclei fraction (CBRC034) [%]
O=C(O)[C@@H]1[O][Sb](=[O])([O][Sb]2(=[O])[O][C@H]([C@H](O)CO)[C@H](O)[C@H](C(=O)O)[O]2)[O][C@H]([C@H](O)CO)[C@@H]1O (stereo partly specified) [stibogluconate] + CN(C)S(=O)(=O)c1ccc2c(c1)/C(=C/c1cc3c([nH]1)CCCC3)C(=O)N2 [SU6656] (first compound 2 µM, partner dose 0.4 µM)	92.9	62.3	127	146	67.8	64.3	105	91.5	89.4	246	83.2	35.9	37.9	89.3	57.9	141	61.5	63.6	43.2	–
Nc1ncn([C@H]2C[C@H](O)[C@@H](CO)O2)c(=O)n1 [decitabine] + Nc1cccc2c1CN(C1CCC(=O)NC1=O)C2=O [lenalidomide] (first compound 0.1 µM, partner dose 1 µM)	172	102	142	203	143	117	–	93.1	57.8	114	118	53.4	75.4	69.2	79.4	96	244	108	99.2	96.4
CCCS(=O)(=O)Nc1ccc(F)c(C(=O)c2c[nH]c3ncc(Cl)cc23)c1F + COc1ccc(Cl)c(Nc2nc3ccccc3nc2NS(=O)(=O)c2cccc(NC(=O)C(C)(C)N)c2)c1 [XL147] (first compound 0.08 µM, partner dose 0.8 µM)	36.1	403	172	351	84.6	108	–	129	149	137	116	72.3	109	151	158	103	57.2	71.8	143	46.1
CN1CCN(c2ccc3nc(-c4c(N)c5c(F)cccc5[nH]c4=O)[nH]c3c2)CC1 [Dovitinib] + Nc1nc(F)nc2c1ncn2[C@@H]1O[C@H](CO)[C@@H](O)[C@@H]1O [fludarabine] (first compound 0.1 µM, partner dose 0.2 µM)	5020	43.9	194	1940	67.4	89.3	–	85	63.4	89.4	92.1	84.2	50	74.9	218	62.9	53.2	76.9	61.2	79.8
